{"source": "patent US20260108514A1", "about": "“METHOD OF INHIBITING EPITHELIAL-MESENCHYMAL TRANSITION AND CANCER METASTASIS” (Agency for Science, Technology and Research, priority 2022, published 2026)", "note": "Structures can show the parent of a compound that is named as a salt."}
{"test_system": "HMLE-ZEB1 cells (CDH1prom-luc reporter, Dox-induced ZEB1 driven EMT)", "assay": "Dual-Glo luciferase CDH1prom-luc reporter screen of LOPAC and bioactive lipid library", "type": "cell-based", "conditions": "Renilla luciferase (constitutive CMV), readout for cell numbers; primary screen", "text": "FIG. 1: Design of a cell-based reporter assay. Doxycycline (Dox)-induced ZEB1 driven EMT (HMLE-ZEB1 cells) was used to conduct high-throughput screen for identifying inhibitors of epithelial-mesenchymal transition.\nA) Dual-Glo luciferase assay to test gene promoters that include CD44, CD166, CDH1 and SERPINE1 in Dox-induced HMLE-ZEB1 cells. Data are represented as ratio of mean Firefly luciferase (FF) and Renilla luciferase (Ren) readings; n=3. B) Dual-glo Luciferase assay of HMLE-ZEB1 screened with LOPAC library. Data are represented as ratio of mean Firefly luciferase (FF) and Renilla luciferase (Ren) readings, n=3. Hits are circled in red. C) Average Z-score of Dual-glo Luciferase assay in HMLE-ZEB1 cells screened with LOPAC library; n=4. D) Validation of screening hits by Dual-glo Luciferase assay in HMLE-ZEB1 screened with LOPAC library by primary and secondary screens. E) Hits from secondary screen validated at different concentrations 5, 1.66, 0.55, 0.18 and 0.06 μM. N=3 F) Validation of the screening hits by CDH1 gene expression. n=3. G) Top, Phase-contrast images of morphological changes of HMLE-ZEB1 cells in DMSO and Dox-treated cells in presence or absence of Kenpaullone (0.25 μM) (DMSO, Dox, Ken, and Dox+Ken). Scale represents 100 μm. Second, Immunofluorescence staining of epithelial marker E-Cadherin (ECAD) and mesenchymal marker Vimentin in DMSO, Dox, Ken and Dox+Ken treated cells. Scale represents 50 μm. Bottom, Fluorescence activated sorting analysis (FACS) of CD44 and CD24 staining in Dox induced HMLE-ZEB1 cells in presence or absence of Ken. Numbers within graph represent percentages of gated cells indicating CD44high CD24low (above) and CD44lowCD24high cells (below). H) TdTomato-labelled MCF7-SLUG+SOX9 cells that were injected orthotopically into the mammary fat pads and induced by Doxycycline (+Dox) to express SLUG and SOX9 to promote metastasis in shControl and shGSK3β cells. Top, Representative fluorescence images of whole-mount of lung and second, histology of lung sections. Scale bar represents 100 μm. Third, Tumors were stained for GSK3β and counterstained with hematoxylin. Scale bar represents 100 μm. Fourth, primary tumors were also stained for E-cadherin, Fibronectin and DAPI. Scale bar represents 50 μm. n=3-5 mice for each group. I) Total number of metastasis as counted from whole mount of lung in mice implanted with in shControl and shGSK3β cells. n=3-5 for each group. **P<0.01 and ***P<0.001 as determined by as determined by one-way ANOVA with Dunnet's multiple comparison test. All data are presented as mean+/−SEM. *P<0.05, **P<0.01, ***P<0.001 and ****P<0.0001, not significant (ns) as determined by unpaired two-tailed t-test unless otherwise stated.\nFIG. 3: Identification of inhibitors of epithelial-mesenchymal transition from high-throughput screening of bioactive lipid library with the screening platform. A) Dual-glo Luciferase assay of HMLE-ZEB1 screened with bioactive lipid library. Data are represented as ratio of mean Firefly luciferase (FF) and Renilla luciferase (Ren) readings, n=3. Hits are circled in red. B) Average Z-score of Dual-glo Luciferase assay in HMLE-ZEB1 cells screened with bioactive lipid library; n=4. Compounds shown in red indicates top hits. C) Protein expression of EMT markers E-cadherin, Fibronectin Vimentin and Snail in DMSO and 4-OHT induced cells treated with and without Cay10603 (10 nM) in HMLE-TWIST. GAPDH was used as a loading control. D) (First)Morphological evidence and (second) Fluorescence activated sorting analysis (FACS) of CD44 and CD24 staining in DMSO, 4-OHT, CAY10603 and 4-OHT+CAY10603 treated cells. Numbers within graph represent percentages of gated cells indicating CD44highCD24low (above) and CD44lowCD24high cells (below). E) Representative bright-field images and quantification of DMSO,4-OHT, CAY,4-OHT+CAY treated cells as shown by of scratch wound migration assay before and after 6 h of scratch in presence or absence of 4-OHT-induced EMT. […]"}
{"compound": "Nc1ccc(-c2ccc3ccccc3n2)cc1", "note": "[BF-170 hydrochloride]", "RL-average": 47781}
{"compound": "O=c1cc(-c2ccc(O)cc2)oc2cc(O)cc(O)c12", "note": "[Apigenin]", "RL-average": 26889.33333}
{"compound": "COc1cccc(-c2cc(=O)c3ccccc3o2)c1N", "note": "[PD 98,059]", "RL-average": 48143.75}
{"compound": "CC(C)(C)OC(=O)Nc1ccc(-c2cc(C(=O)NCCCCCCC(=O)NO)no2)cc1", "note": "[CAY 10603]", "RL-average": 16158}
{"compound": "CCCCCCCCCCCCCCCCCCOC[C@H](COP(=O)([O-])OCC[N+](C)(C)C)OC", "note": "[2-O-methyl PAF C-18]", "RL-average": 13317}
{"compound": "Cc1cc(O)c2c(c1)C(=O)c1cc(O)cc(O)c1C2=O", "note": "[Emodin]", "RL-average": 33922.33333}
{"compound": "O=C1Cc2c([nH]c3ccc(Br)cc23)-c2ccccc2N1", "note": "[Kenpaullone]", "RL-average": 25920}
{"compound": "Cc1ccc(C(=O)Cn2c3c(sc2=N)CCCC3)cc1", "note": "[Pifithrin-α]", "RL-average": 26922.5}
{"compound": "CCc1ccc(/C=C2/SC(=S)NC2=O)cc1", "note": "[10058-F4]", "RL-average": 16782}
